Data taken from PubChem BioAssay AID2685 (National Center for Advancing Translational Sciences (NCATS), 2010).
The other results are listed elsewhere or left out. These are further read-outs of the screen, such as a control signal, another cell line or another target. No call is given for them. Most of these compounds were active or inconclusive in the main read-out, so they are no random draw. The note in brackets gives the kind of curve behind each potency; many fits are weak.

Experiment: qHTS Assay for Lipid Storage Modulators in Drosophila S3 Cells;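 on cell number change: cells counted by Cell Tracker Red CMTPX staining in the red channel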
Conditions: BODIPY lipid droplet fluorescence, 18-24 h; for cell number change: measured here: cell count max response, cells fed with added oleic acid
Method in brief: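 Drosophila S3 cells got compounds at several concentrations plus oleic acid (400 uM solution). Laser-scanning cytometry with 488 nm excitation read lipid droplets at 500-530 nm and cells at 575-640 nm. Percent activity was relative to 20 uM Triacsin C.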

[1] = measured here: lipid fluorescence (Fed channel) AC50, cells fed with added oleic acid
[2] = measured here: cell number channel AC50, cells fed with added oleic acid

Structure (SMILES)	cell number change [%]	AC50 [1]	AC50 [2]
O=C(CCc1nnc(Cc2ccc3c(c2)OCO3)o1)NC(c1ccccn1)C(F)(F)F (stereo not given)	-13.2	–	–
CC(C)(C)c1cc(C(=O)N2CCc3ccccc32)ccn1	-17.1	14.6 µM [rising, single point]	–
C=CCn1c(Cc2c(C)[nH]c3ccccc23)nnc1SCC(=O)NCc1ccc(F)cc1	-16.1	29.1 µM [falling, single point]	–
O=C(CSc1ncnc2scc(-c3ccccc3)c12)NCc1ccc2c(c1)OCO2	8.23	29.1 µM [falling, single point]	–
CC(O)CNC(=O)C1CCN(Cc2ccc(OCc3ccccc3)cc2)CC1 (stereo not given)	9.26	10.3 µM [falling, single point]	–
CCOC(=O)C1CCN(C(=O)CSC2=NCCS2)CC1	6.42	–	–
O=C(CS(=O)(=O)c1ccccc1)Nc1nnc(C(F)(F)F)s1	17.2	–	–
Cc1nc2ccc(NC(=O)c3ccccc3)cc2s1	-104	–	6.51 µM [falling, single point]
Cc1cc([N+](=O)[O-])nn1CCCC(=O)N1CCN(c2ccccc2)CC1	-2.93	20.6 µM [rising, single point]	–
CCc1nc(SCC(=O)NCC2CCCO2)c2oc3ccccc3c2n1 (stereo not given)	3.85	2.59 µM [rising, single point]	–
CCOC(=O)CNC(=O)CNC(=O)c1ccc(OCC(C)C)cc1	-19.6	3.26 µM [falling, full curve]	–
CC(C)[C@H](NC(=O)c1ccco1)C(=O)OCC(=O)Nc1ccccc1OC(F)F	38.5	–	0.231 µM [rising, full curve, poor fit]
Cc1cccc(Cl)c1OCCCCn1ccnc1	25.2	–	–
CCCn1c(COc2ccccc2)nc2ccccc21	24.6	–	0.0461 µM [rising, full curve, poor fit]
O=C(c1ccccc1)N1CCC(CC2CC(c3ccc(Cl)cc3)=NO2)(C(=O)NCC2CCCCC2)CC1 (stereo not given)	3.56	–	2.31 µM [rising, partial curve, poor fit]
CCOC(=O)N1CC(=O)Nc2ccc(Br)cc2C1c1ccccc1 (stereo not given)	27.9	–	–
Cc1ccccc1Cn1cnc2c([N+](=O)[O-])c(C)c(C)cc21	0.0776	3.66 µM [rising, single point]	6.51 µM [falling, single point]
O=C(c1cccnc1)N1CCC(c2nc3ccccc3[nH]2)CC1	0.94	0.00517 µM [rising, full curve, poor fit]	0.00517 µM [rising, full curve, poor fit]
Cc1cccc(N(Cc2ccccc2)C(=O)CSC(C)C(=O)Nc2cc(C)on2)c1 (stereo not given)	-99.2	–	20.6 µM [falling, single point]

Structural class, those above containing sulfur.
Structure (SMILES)	cell number change [%]	AC50 [1]	AC50 [2]
C=CCn1c(Cc2c(C)[nH]c3ccccc23)nnc1SCC(=O)NCc1ccc(F)cc1	-16.1	29.1 µM [falling, single point]	–
O=C(CSc1ncnc2scc(-c3ccccc3)c12)NCc1ccc2c(c1)OCO2	8.23	29.1 µM [falling, single point]	–
CCOC(=O)C1CCN(C(=O)CSC2=NCCS2)CC1	6.42	–	–
O=C(CS(=O)(=O)c1ccccc1)Nc1nnc(C(F)(F)F)s1	17.2	–	–
Cc1nc2ccc(NC(=O)c3ccccc3)cc2s1	-104	–	6.51 µM [falling, single point]
CCc1nc(SCC(=O)NCC2CCCO2)c2oc3ccccc3c2n1 (stereo not given)	3.85	2.59 µM [rising, single point]	–
Cc1cccc(N(Cc2ccccc2)C(=O)CSC(C)C(=O)Nc2cc(C)on2)c1 (stereo not given)	-99.2	–	20.6 µM [falling, single point]

Continued.

Structure (SMILES)	cell number change [%]	AC50 [1]	AC50 [2]
COc1ccc(CC(NC(=O)c2ccccc2)C(=O)NCC(=O)O)cc1 (stereo not given)	11.8	0.206 µM [rising, full curve, poor fit]	0.291 µM [rising, full curve, poor fit]
CCCCOc1ccc(/C=C/C(=O)OCC(=O)NC2CCS(=O)(=O)C2)cc1OCC (stereo not given)	-7	–	–
CC(=O)c1ccc(N(C(=O)CNC(=O)c2ccco2)C(C(=O)NC2CCCC2)c2ccc(C)o2)cc1 (stereo not given)	-15.4	3.66 µM [rising, partial curve, poor fit]	–
Cc1occc1C(=O)O/N=C(\N)c1ccc(Cl)cc1	34.6	–	20.6 µM [rising, single point]
CCCCNC(=O)CS(=O)Cc1nc(-c2cccc(C)c2)oc1C (stereo not given)	-14.8	–	–
CN(C(=O)c1ccc(NC(=O)Cc2ccc(NC(=O)C3CCN(C(=O)C4CCCCC4)CC3)cc2)cc1)C1CC1	-3.81	6.51 µM [falling, single point]	6.51 µM [falling, single point]
CCS(=O)(=O)N1CCC(C(=O)NCc2cccs2)CC1	-197	0.291 µM [falling, full curve, poor fit]	29.1 µM [falling, partial curve]
COc1cc(OC)cc(OC(=O)c2cccc(S(=O)(=O)N3CCN(C)CC3)c2)c1	-37	–	2.31 µM [falling, partial curve, poor fit]
Cc1nc(NC(=O)c2cccc(Cl)c2)sc1-c1csc(Nc2cccc(Cl)c2)n1	15.5	–	–
O=C(CN1CCC(O)(c2cccc(C(F)(F)F)c2)CC1)NCCc1ccccc1	37.5	29.1 µM [falling, single point]	–
O=C1[C@H]2CC3C=CC2(O3)[C@@H]2OCCCN12 (stereo not given in full)	6.01	0.326 µM [falling, full curve]	–
CCC1=NN2C(=N)/C(=C\c3cccn3-c3ccc(C)c(C)c3)C(=O)N=C2S1	–	13 µM [falling, partial curve]	–
CS(=O)(=O)N(CC(=O)N1CCN(Cc2ccccc2)CC1)c1ccccc1Br	-0.806	0.092 µM [rising, single point]	–
CC1(c2ccc(Cl)cc2)NC(=O)N(CC(=O)NCc2cccs2)C1=O (stereo not given)	-10	0.517 µM [falling, full curve, poor fit]	0.291 µM [falling, full curve]
CC(C)(C)C(=O)NC(CC(=O)O)c1ccccc1 (stereo not given)	-17	0.116 µM [falling, full curve, poor fit]	–
Cc1ccc(O)c(C2=Nc3ccccc3N=C(c3ccco3)C2)c1	-54.2	11.6 µM [falling, partial curve]	32.6 µM [falling, partial curve, poor fit]
COc1ccc(C(=O)N(CC2CCCO2)C(C(=O)NC2CCCC2)c2ccc(Cl)cc2)cc1OC (stereo not given)	–	6.51 µM [rising, single point]	6.51 µM [rising, single point]
CCN(CC(=O)Nc1c(F)cccc1F)C(=O)C1CC1C (stereo not given)	-75	1.46 µM [rising, partial curve, poor fit]	16.4 µM [falling, single point]
COc1cc(C(=S)N2CCOCC2)ccc1OC(=O)c1cc([N+](=O)[O-])c(C)c([N+](=O)[O-])c1	-56	–	18.4 µM [falling, single point]
